# Residues, ends and D or L forms follow the SMILES beside them.
# Assay: Negative stain transmission electron microscopy (TEM) of aggregates
# Assay type: physicochemical
# Details: 100 μM, 37 °C
structure (smiles),measurement,setting,value
CC(C)C[C@H](NC(=O)[C@H](C)NC(=O)[C@@H](NC(=O)[C@H](Cc1ccccc1)NC(=O)[C@H](CC(N)=O)NC(=O)[C@H](Cc1c[nH]cn1)NC(=O)[C@@H](NC(=O)[C@H](CC(=O)O)NC(=O)[C@H](CCC(N)=O)NC(=O)[C@H](CC(C)C)NC(=O)[C@H](CCCCN)NC(=O)[C@H](CCCCN)NC(=O)[C@@H](N)CCCNC(=N)N)C(C)C)C(C)C)C(=O)O [PTH25–37] (H-RKKLQDVHNFVAL-OH),size of single fibrils by TEM after 20 h,"50 mM Na2HPO4, pH 7.4",> 6 μm
same,aggregate morphology by TEM after 20 h,"50 mM Na2HPO4, pH 7.4, negative stain",amyloid fibrils
